## Primary screen of a compound library

Measurements from “University of Dundee, Small-Polar-MMV Screening Library” (2021), ChEMBL document CHEMBL3988442.

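Viability assay of Plasmodium falciparum sporozoites; the read-out is not stated. The concentration is filed as 10 mM, unlikely as a test dose, so the dose is not known. The record gives no direction; compounds that gave an IC50 in retests scored well above the rest, so higher reads as lower viability. Strong results were mostly tested again. Of about 34,000 compounds tested this way, about 280 (0.84%) reached 50% or more in at least one test.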

Values are the deposited “Percent Effect”, in %. How 0% and 100% were set is not recorded. Most values in the screen are low, and negative values occur. This is an unselected part of the compounds tested. Two or more numbers in one place are separate tests of the same structure; such repeats can differ widely.

* COc1cccc(-c2nccnc2C2CCN(C(C)=O)CC2)c1 | -5.095%
* O=C(O)C(F)(F)F.[H][C@@]12CCN(C(=O)c3cnn(C)c3)[C@@]1([H])CCN2Cc1ccccc1 | 12.59%
* CC1c2ncc(CN3CCN(C)CC3)n2CCN1Cc1ccc(F)cc1.O=C(O)C(F)(F)F.O=C(O)C(F)(F)F.O=C(O)C(F)(F)F (centres undefined) | 2.719%
* Cc1cccc(N2CCc3ncc(CNc4ccccn4)n3CC2)n1.O=C(O)C(F)(F)F.O=C(O)C(F)(F)F | 0.9649%
* CCc1nnc2n1CCN(C(=O)c1cc3cc(F)ccc3[nH]1)C2 | 3.434%
* O=C(O)C(F)(F)F.[H][C@]12CN(c3ncc(C)cn3)C[C@@]1(C(=O)O)CCCN(C1CCOC1)C2 (some centres undefined) | 9.632%
* CCN1CCN(CCCNc2ncccn2)CC1 | -11.01%
* O=C(O)C(F)(F)F.O=C(O)C(F)(F)F.[H][C@@]12CN(Cc3nccn3C)C[C@]1([H])OCCN2Cc1c(C)noc1C | -9.53%
* COc1ccc(F)c(CN2CCCC3(CCN(S(C)(=O)=O)C3)C2)c1 (centres undefined) | -9.664% & -13.4%
* CNS(=O)(=O)Cc1ccc(CNC(=O)Nc2cn[nH]c2)cc1 | 1.562%
* Cc1nc(C)n(CC2CCCN(CCCOc3ccc(F)cc3)C2)n1 (centres undefined) | 1.524%
* COc1cccc(-n2nnc(C(=O)N3CCC(C(N)=O)CC3)c2C)c1 | -1.791%
* CCc1nnc(CNCC2CCCN2c2cccnn2)o1 (centres undefined) | -6.642%
* CNC(=O)c1ccc(CN(C)c2ccc(C(F)(F)F)cn2)cc1 | -3.195%
* O=C1CCC2(CCCN(C(=O)NCc3ccccc3)CC2)N1 (centres undefined) | -2.364%
* CS(=O)(=O)N1CCCCCC1C1CCN(c2ncccc2C#N)CC1 (centres undefined) | -5.276%
* c1cc(CN2CCC3(CC2)COC(COCC2CC2)C3)co1 (centres undefined) | 12.17%
* CN(C)c1cccc(C(=O)NCC(O)c2cccs2)c1 (centres undefined) | 12.86% & 4.207%
* CCN(Cc1ccc(F)c(F)c1)Cc1nc2c(cnn2C)c(=O)[nH]1 | 12.07%
* CCc1nc(C)cn1C(=O)Nc1ccc(F)cc1 | -13.11%
* CN1CCCC1CNC(=O)CCCOc1ccc(I)cc1 (centres undefined) | -7.779%
* COCCCNC(=O)C1(NC(=O)c2ccc3[nH]ncc3c2)CCCC1 | -9.656%
* CCc1nc(C2CCCN(C(=O)NCCOC)C2)no1 (centres undefined) | 15.54%
* CCOc1cccc2c1OCC(C(=O)NS(=O)(=O)c1ccc(Cl)s1)=C2 | 6.126%
* CCn1cc2c(n1)CN(Cc1nccs1)CC2COCC1CC1.O=C(O)C(F)(F)F (centres undefined) | -7.036%
* [H][C@@]12CCCCN(Cc3ccccc3)[C@]1([H])CN(c1ncccn1)C2 | 6.2%
* Cc1cnn(CC2CCCN2c2ncnc3ccsc23)c1 (centres undefined) | -3.307%
* Cc1c[nH]nc1C1CCCCN1C(=O)CNS(C)(=O)=O (centres undefined) | 21.59%
* CC(C(=O)NCCCN1CCOCC1)n1cncn1 (centres undefined) | -5.655%

Some entries from above, unchanged:

| SMILES | effect |
|---|---|
| `CCc1nnc(CNCC2CCCN2c2cccnn2)o1` (centres undefined) | -6.642% |
| `CCc1nnc2n1CCN(C(=O)c1cc3cc(F)ccc3[nH]1)C2` | 3.434% |